# In patent US11117946 (dated 2021):
# End groups of sequences in plain letters are not given here.
# Experiment: general procedure: Fmoc solid-phase peptide synthesis; H-Gly-2-chlorotrityl resin (100-200 or 200-400 mesh); DIC/OXYMAPURE or TBTU/DIPEA; DEPBT/DIPEA for Boc-His(Boc)-OH
# Settings: whole synthesis; for crude HPLC purity: analytical reversed phase UHPLC; for crude yield: gross yield based on peptide resin
sequence,measurement,setting,value
HAEGTFTSDVSSYLEGQAAKEFIAWLVRGRG,crude HPLC purity,run 1,about 50%
same,crude HPLC purity,run 2,52.53%
same,crude HPLC purity,run 3,64.84%
same,crude HPLC purity,run 4,60.52%
same,crude HPLC purity,run 5,60.52%
same,crude HPLC purity,run 6,44.89%
same,crude HPLC purity,run 7,63.1%
same,crude HPLC purity,run 8,55.85%
same,crude HPLC purity,run 9,52.52%
same,crude HPLC purity,run 10,52.2%
same,crude HPLC purity,run 11,74.29%
same,crude HPLC purity,run 12,60.52%
same,crude HPLC purity,run 13,56.08%
same,crude HPLC purity,run 14,57.12%
same,crude HPLC purity,run 15,68.1%
same,crude yield,run 1,44%
same,crude yield,run 2,28%
same,crude yield,run 3,37%
same,crude yield,run 4,32%
same,crude yield,run 5,38%
same,crude yield,run 6,42%
same,crude yield,run 7,43%
same,crude yield,run 8,1%
same,crude yield,run 9,36%
same,crude yield,run 10,39%
same,crude yield,run 11,42%
same,crude yield,run 12,34%
same,crude yield,run 13,41%
